Laboratory results published in PubChem BioAssay AID588590 (National Center for Advancing Translational Sciences (NCATS), 2011).
About 4,000 (1%) of roughly 390,000 compounds were called active. The shares of active, inactive and inconclusive entries below differ from those in the screen. The call rests on the fitted dose curve; in most records, active means well fitted inhibition curve with a large enough effect; inconclusive means small, poorly fitted or top-dose-only effect, or another doubt; inactive means no such curve, though single readings can be large or run the other way. A potency beside an inconclusive call is a rough fit, not a confirmed value.

Amino acid sequences for entries named in this document (tags omitted). A change or cut given only in a name is not applied to a line headed by its entry.
UniProt Q9UNA4: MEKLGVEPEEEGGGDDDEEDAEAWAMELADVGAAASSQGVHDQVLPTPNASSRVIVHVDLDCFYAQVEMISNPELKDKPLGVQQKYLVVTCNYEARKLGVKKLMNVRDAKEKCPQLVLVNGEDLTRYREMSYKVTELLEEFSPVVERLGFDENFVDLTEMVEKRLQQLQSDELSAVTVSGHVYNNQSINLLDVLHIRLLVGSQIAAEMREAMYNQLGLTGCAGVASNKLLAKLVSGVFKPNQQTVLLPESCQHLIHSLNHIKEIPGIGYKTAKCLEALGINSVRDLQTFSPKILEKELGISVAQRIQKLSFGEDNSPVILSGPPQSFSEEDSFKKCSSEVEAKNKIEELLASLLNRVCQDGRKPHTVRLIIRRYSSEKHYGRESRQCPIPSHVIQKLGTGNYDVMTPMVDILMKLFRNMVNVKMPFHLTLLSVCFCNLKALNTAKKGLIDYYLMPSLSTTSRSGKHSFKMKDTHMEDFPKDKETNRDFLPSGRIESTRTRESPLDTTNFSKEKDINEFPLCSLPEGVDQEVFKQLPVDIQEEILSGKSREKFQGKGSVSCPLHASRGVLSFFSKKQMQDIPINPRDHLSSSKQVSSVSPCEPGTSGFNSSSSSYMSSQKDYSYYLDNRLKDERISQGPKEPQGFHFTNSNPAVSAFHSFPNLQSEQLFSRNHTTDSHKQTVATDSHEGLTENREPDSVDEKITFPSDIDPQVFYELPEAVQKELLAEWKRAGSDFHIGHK

These compounds were tested against DNA polymerase iota (Homo sapiens) (UniProt Q9UNA4) (assay: qHTS for Inhibitors of Polymerase Iota). Details: Pol iota fluorescent replication assay, 10 min; series mostly up to 115 µM; activity, negative = inhibition: at the top concentration.
In short: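 Pol iota at 10 nM preincubated 15 min with compounds at room temperature; reaction started with fluorescent substrate, 50 nM final. Fluorescence read kinetically at 0 and 10 min; buffer-only wells as negative control.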
Potency means the concentration at half of the fitted maximal effect.

| Structure (SMILES) | Potency | activity, negative = inhibition |
| --- | --- | --- |
| Cc1ccc(NC(=O)Cn2c(=O)oc3ccccc32)cc1Cl | inactive |  |
| Cc1ccc(-c2cn3c(n2)CCCC3)cc1 | inconclusive: 20 µM [inhibitor, partial curve] |  |
| CN(C)NC(=O)C12CCC(C)(C(=O)O1)C2(C)C (centres undefined) | inconclusive: 39.8 µM [inhibitor, single point] |  |
| O=C(N/N=C/c1cc(Br)c(Br)o1)C(O)c1ccccc1 (centres undefined) | inconclusive: 20 µM [inhibitor, full curve] |  |
| COc1ccc(S[C@@H](CCN2CC[C@H](NC(=O)OCc3ccccc3)CCC2=O)c2ccccc2)cc1 | inactive |  |
| c1ccc(N2CCN(c3ncnc4sc5c(c34)CCC5)CC2)cc1 | inconclusive: 20 µM [inhibitor, partial curve, poor fit] |  |
| C=CCNc1nc(-c2ccc(O)c(C(N)=O)c2)cs1 | inconclusive: 89.1 µM [inhibitor, full curve, poor fit] |  |
| Cc1ccc(S(=O)(=O)Nc2ccc(S(=O)(=O)Nc3cc(C)nc(C)n3)cc2)cc1 | inconclusive: 79.4 µM [inhibitor, single point] |  |
| CCOc1ccc(N(CC(=O)NCc2ccccc2C)S(C)(=O)=O)cc1 | inconclusive: 79.4 µM [inhibitor, single point] |  |
| O=C(COC(=O)/C=C/c1ccco1)Nc1ccccc1 | inconclusive: 79.4 µM [inhibitor, partial curve] |  |
| CCC(=O)OCC(=O)Nc1ncc(C(F)(F)F)cc1Cl | inconclusive: 25.1 µM [inhibitor, partial curve, poor fit] |  |
| NC(=O)C1CCCN(CC(O)COCc2ccc(Cl)cc2)C1 (centres undefined) | inconclusive: 25.1 µM [inhibitor, partial curve] |  |
| Cc1[nH]nc2c1C(c1ccccc1)C1=C(CC(C)(C)CC1=O)N2 (centres undefined) | inconclusive: 12.6 µM [inhibitor, partial curve, poor fit] |  |
| COC(=O)CCC(=O)OC1(C)C(=O)C=C2C=C(C3CC3)N(Cc3ccc4c(c3)OCO4)C=C2C1=O (centres undefined) | inconclusive: 17.8 µM [inhibitor, single point] |  |
| Cc1cc(C(=O)CCl)c(C)n1-c1cccc(S(=O)(=O)N2CCOCC2)c1 | inconclusive: 15.8 µM [inhibitor, full curve, poor fit] |  |
| Cc1cc(OC(=O)c2ccccc2)n(CCC#N)n1 | inconclusive: 2.24 µM [inhibitor, full curve, poor fit] |  |
| COc1ccc2c(c1)C(SCC(=O)NCCc1ccccc1)CC(C)(C)O2 (centres undefined) | inconclusive: 3.98 µM [inhibitor, full curve, poor fit] |  |
| COc1ccc(-c2ccc(NS(=O)(=O)c3cccc(Cl)c3)cc2)nn1 | inconclusive: 89.1 µM [inhibitor, partial curve, poor fit] |  |
| O=C(COc1ccccc1Br)NC(=O)NC1CCCC1 | inconclusive: 39.8 µM [inhibitor, partial curve, poor fit] |  |
| COc1ccc(OC)c2sc(NC(=O)CCSc3ccccc3)nc12 | inconclusive: 10 µM [inhibitor, single point] |  |

2 entries drawn at random from those above:

| Structure (SMILES) | Potency | activity, negative = inhibition |
| --- | --- | --- |
| COc1ccc(-c2ccc(NS(=O)(=O)c3cccc(Cl)c3)cc2)nn1 | inconclusive: 89.1 µM [inhibitor, partial curve, poor fit] |  |
| O=C(COc1ccccc1Br)NC(=O)NC1CCCC1 | inconclusive: 39.8 µM [inhibitor, partial curve, poor fit] |  |

Remaining list, next part:

| Structure (SMILES) | Potency | activity, negative = inhibition |
| --- | --- | --- |
| CCOC(=O)C1CCCN(c2ccc(NC(=O)c3snc4c(=O)[nH]c(C)nc34)cc2)C1 (centres undefined) | inconclusive: 39.8 µM [inhibitor, partial curve] |  |
| O=c1[nH]c(=S)[nH]nc1Cc1ccc(Cl)c(Cl)c1 | inconclusive: 31.6 µM [inhibitor, single point] |  |
| CC1CCc2c(sc(/N=C/N(C)C)c2C#N)C1 (centres undefined) |  | inactive: -4.99% |
| COc1ccc(C(=O)CSc2nnc(Cn3nnc4ccccc43)n2C)cc1 | inconclusive: 100 µM [inhibitor, single point] |  |
| COc1ccc(C(=O)Oc2cc(-c3ccc4c(c3)OCO4)cc(=O)c3c(C)oc(C)c23)cc1 | inconclusive: 89.1 µM [inhibitor, partial curve, poor fit] |  |
| O=C(NC(=S)NNC(=O)c1ccccc1[N+](=O)[O-])c1ccccc1 |  | inactive: -9.55% |
| COCCn1cnc2c1c(=O)n(Cc1ccc(C#N)cc1)c(=O)n2Cc1ccccc1 |  | inactive: 29.1% |
| COc1ccc(C(=S)N2CCOCC2)cc1OC(=O)c1cc([N+](=O)[O-])c(C)c([N+](=O)[O-])c1 | inconclusive: 28.2 µM [inhibitor, partial curve, poor fit] |  |
| COc1ccc(CNC(=O)CSc2ncc(S(=O)(=O)c3ccc(Br)cc3)c(=O)[nH]2)cc1 |  | inactive: -20.5% |
| CCCn1c(=O)[nH]c(=O)c2[nH]cnc21 | inconclusive: 89.1 µM [inhibitor, single point] |  |
| CCN1CCN(c2cc3nc(C)n(Cc4ccccc4)c(=O)c3cc2NC(=O)c2ccccc2F)CC1 | inconclusive: 56.2 µM [inhibitor, partial curve, poor fit] |  |
| Cc1cc(C)nc(SCC(=O)Nc2ccc(S(=O)(=O)NCCO)cc2)n1 | inconclusive: 89.1 µM [inhibitor, single point] |  |
| COc1cc(N(C)C)ccc1C=c1c2ccccc2n2c1cc(-c1ccccc1)[n+]2C | inconclusive: 20 µM [inhibitor, full curve] |  |
| Cc1cc(C)c(NC(=O)COC(=O)COc2ccc3c(C)cc(=O)oc3c2)c(Cl)c1 | inconclusive: 63.1 µM [inhibitor, partial curve, poor fit] |  |
| O=C1CS(=O)(=O)N(Cc2cccc(F)c2)c2ccc(Br)cc21 | inconclusive: 79.4 µM [inhibitor, partial curve, poor fit] |  |
| Cc1ccc(C(=O)n2nc(-c3cccnc3)nc2N)cc1 | inconclusive: 28.2 µM [inhibitor, partial curve, poor fit] |  |
| CCC(C)[C@H]1CNCCN1CCc1cccc2ccccc12 (some centres undefined) | inconclusive: 8.91 µM [inhibitor, partial curve, poor fit] |  |
| CCCCOc1ccc(CNC(=O)Cc2ccc(NC(=O)N3CCSc4ncccc43)cc2)cc1 | inconclusive: 100 µM [inhibitor, partial curve, poor fit] |  |
| c1ccc2nc3c(nc2c1)c1ccccc1n3CCN1CCOCC1 | inconclusive: 39.8 µM [inhibitor, single point] |  |
